No constants are given. Whether binding was seen depends on the method and setting. Binding seen in cells or lysates may run through a third protein. Some results given as binding are weak or reduced against the parent protein; the word gives no strength. Sequences can lack the tags named with a protein.
T1: His6-Atg12 (wild type) (S. cerevisiae) (UniProt P38316)
T1 sequence: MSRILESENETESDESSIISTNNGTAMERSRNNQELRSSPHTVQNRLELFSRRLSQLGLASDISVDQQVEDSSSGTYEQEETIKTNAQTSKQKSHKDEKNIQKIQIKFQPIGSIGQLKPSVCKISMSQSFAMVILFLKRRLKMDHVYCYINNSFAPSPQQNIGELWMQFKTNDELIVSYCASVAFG

T2: PA-Atg7 (full length, wild type) (S. cerevisiae) (UniProt P38862)
T2 sequence: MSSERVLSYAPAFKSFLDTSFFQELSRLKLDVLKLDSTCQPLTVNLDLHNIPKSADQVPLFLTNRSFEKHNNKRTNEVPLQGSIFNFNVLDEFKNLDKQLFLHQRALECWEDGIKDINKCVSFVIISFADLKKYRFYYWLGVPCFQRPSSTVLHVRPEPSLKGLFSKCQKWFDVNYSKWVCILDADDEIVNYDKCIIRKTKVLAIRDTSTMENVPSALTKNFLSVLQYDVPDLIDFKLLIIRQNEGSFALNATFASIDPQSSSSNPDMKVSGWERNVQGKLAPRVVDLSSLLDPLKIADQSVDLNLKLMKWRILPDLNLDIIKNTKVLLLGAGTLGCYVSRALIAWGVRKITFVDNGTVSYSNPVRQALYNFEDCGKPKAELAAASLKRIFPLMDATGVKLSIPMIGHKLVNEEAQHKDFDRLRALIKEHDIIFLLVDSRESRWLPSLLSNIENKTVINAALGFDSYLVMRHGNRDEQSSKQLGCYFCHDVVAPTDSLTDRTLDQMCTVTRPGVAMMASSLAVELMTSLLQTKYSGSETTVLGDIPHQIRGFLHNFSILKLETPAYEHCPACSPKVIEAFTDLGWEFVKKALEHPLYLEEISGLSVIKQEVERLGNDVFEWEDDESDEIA

T3: PA-Atg7[∆295-600] (S. cerevisiae) (UniProt P38862)
T3 sequence: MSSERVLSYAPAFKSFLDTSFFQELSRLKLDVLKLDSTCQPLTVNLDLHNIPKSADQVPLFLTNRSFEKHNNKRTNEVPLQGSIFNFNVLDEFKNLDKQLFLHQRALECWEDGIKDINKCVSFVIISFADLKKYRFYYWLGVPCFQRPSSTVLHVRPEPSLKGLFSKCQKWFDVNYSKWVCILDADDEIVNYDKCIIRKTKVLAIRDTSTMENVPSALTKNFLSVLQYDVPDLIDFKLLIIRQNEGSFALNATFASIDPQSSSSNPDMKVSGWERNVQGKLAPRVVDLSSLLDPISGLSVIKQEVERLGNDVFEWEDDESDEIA

T4: PA-Atg10[∆111-167] (S. cerevisiae) (UniProt Q07879)
T4 sequence: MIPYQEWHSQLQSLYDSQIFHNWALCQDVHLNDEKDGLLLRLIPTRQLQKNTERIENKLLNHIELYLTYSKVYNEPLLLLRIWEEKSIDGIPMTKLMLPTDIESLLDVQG


Key:
[1] = target: T1, His6-Atg12 (wild type) (S. cerevisiae); test: pull-down; His6-Atg12 pulled down by TALON metal affinity resin from lysates of atg7∆ atg10∆ atg12∆ yeast cells overexpressing PA-Atg7, PA-Atg10 and His6-Atg12; 2 h at 4 °C; elution with SDS-PAGE buffer and 0.5 M imidazole; western blot with anti-PA or anti-His
[2] = target: T2, PA-Atg7 (full length, wild type) (S. cerevisiae); test: co-IP; affinity isolation from lysates of atg7∆ atg12∆ yeast cells expressing PA-Atg7 variants and His6-Atg12 variants (CUP1 promoter); PA-Atg7 as bait (methods: IgG Sepharose 6 Fast Flow), 2 h at 4 °C; PBS pH 7.4, 0.2 M sorbitol, 1 mM MgCl2, 0.1% or 0.5% Triton X-100; western blot with anti-polyhistidine and anti-PAP
[3] = target: T3, PA-Atg7[∆295-600] (S. cerevisiae); test: as above
[4] = target: T4, PA-Atg10[∆111-167] (S. cerevisiae); test: co-IP; affinity isolation from lysates of atg7∆ atg10∆ atg12∆ yeast cells (no Atg7, proteins unconjugated) overexpressing PA-Atg10 variants and His6-Atg12 variants (CUP1 promoter); PA-Atg10 as bait (methods: IgG Sepharose 6 Fast Flow), 2 h at 4 °C; PBS pH 7.4, 0.2 M sorbitol, 1 mM MgCl2, 0.1% or 0.5% Triton X-100; western blot

binding [1]	binding [2]	binding [3]	binding [4]	Binder
binds				PA-Atg7 (full length, wild type) (enzyme, UniProt P38862 1-630) MSSERVLSYAPAFKSFLDTSFFQELSRLKLDVLKLDSTCQPLTVNLDLHNIPKSADQVPLFLTNRSFEKHNNKRTNEVPLQGSIFNFNVLDEFKNLDKQLFLHQRALECWEDGIKDINKCVSFVIISFADLKKYRFYYWLGVPCFQRPSSTVLHVRPEPSLKGLFSKCQKWFDVNYSKWVCILDADDEIVNYDKCIIRKTKVLAIRDTSTMENVPSALTKNFLSVLQYDVPDLIDFKLLIIRQNEGSFALNATFASIDPQSSSSNPDMKVSGWERNVQGKLAPRVVDLSSLLDPLKIADQSVDLNLKLMKWRILPDLNLDIIKNTKVLLLGAGTLGCYVSRALIAWGVRKITFVDNGTVSYSNPVRQALYNFEDCGKPKAELAAASLKRIFPLMDATGVKLSIPMIGHKLVNEEAQHKDFDRLRALIKEHDIIFLLVDSRESRWLPSLLSNIENKTVINAALGFDSYLVMRHGNRDEQSSKQLGCYFCHDVVAPTDSLTDRTLDQMCTVTRPGVAMMASSLAVELMTSLLQTKYSGSETTVLGDIPHQIRGFLHNFSILKLETPAYEHCPACSPKVIEAFTDLGWEFVKKALEHPLYLEEISGLSVIKQEVERLGNDVFEWEDDESDEIA
	binds	binds	binds	His6-Atg12 (wild type) (protein, UniProt P38316 1-186) MSRILESENETESDESSIISTNNGTAMERSRNNQELRSSPHTVQNRLELFSRRLSQLGLASDISVDQQVEDSSSGTYEQEETIKTNAQTSKQKSHKDEKNIQKIQIKFQPIGSIGQLKPSVCKISMSQSFAMVILFLKRRLKMDHVYCYINNSFAPSPQQNIGELWMQFKTNDELIVSYCASVAFG

From PMC10606595
